Results are given in words; binding and its absence hold for the method and conditions named. Some binding calls cover weakened binding; strength is not graded here. Sequences can lack the tags named with a protein.
Key:
[1] = target: Gal-9 R65A fused with EGFP, expressed in 293T cells (human) (UniProt O00182); assay: flow cytometry on cells
[2] = target: full-length human Gal-9 fused with EGFP, expressed in 293T cells (human) (UniProt O00182); assay: flow cytometry on cells

By UniProt entry, the sequences of proteins in these tests, tags left out. Where a name states a change or a piece, a line headed by the entry shows the natural chain unless it says otherwise. Chains listed by the source or under a name are the forms on record and can include a tag or linker. Residues count along the entry.
Gal-9 R65A fused with EGFP, expressed in 293T cells (O00182, form named): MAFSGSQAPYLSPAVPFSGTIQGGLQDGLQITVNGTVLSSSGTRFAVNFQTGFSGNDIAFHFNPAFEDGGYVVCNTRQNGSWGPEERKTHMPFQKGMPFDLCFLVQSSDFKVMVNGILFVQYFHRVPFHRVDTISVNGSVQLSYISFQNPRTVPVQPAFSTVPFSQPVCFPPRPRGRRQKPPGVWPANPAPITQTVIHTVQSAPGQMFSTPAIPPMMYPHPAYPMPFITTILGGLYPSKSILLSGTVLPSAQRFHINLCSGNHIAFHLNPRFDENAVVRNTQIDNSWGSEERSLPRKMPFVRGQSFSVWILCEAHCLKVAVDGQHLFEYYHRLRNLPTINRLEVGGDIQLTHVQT
UniProt P10747, residues 19-152: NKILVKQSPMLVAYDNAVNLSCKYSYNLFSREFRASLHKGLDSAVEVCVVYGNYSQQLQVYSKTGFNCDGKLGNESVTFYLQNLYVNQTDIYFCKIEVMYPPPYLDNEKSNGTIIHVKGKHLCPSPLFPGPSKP
UniProt P42081, residues 24-247: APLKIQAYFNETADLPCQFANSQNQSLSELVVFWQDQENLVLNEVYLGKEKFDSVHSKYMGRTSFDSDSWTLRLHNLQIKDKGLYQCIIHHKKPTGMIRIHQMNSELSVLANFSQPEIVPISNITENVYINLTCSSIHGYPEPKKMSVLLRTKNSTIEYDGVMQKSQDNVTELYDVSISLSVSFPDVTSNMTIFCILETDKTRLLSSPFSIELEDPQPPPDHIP
UniProt Q15116, residues 25-170: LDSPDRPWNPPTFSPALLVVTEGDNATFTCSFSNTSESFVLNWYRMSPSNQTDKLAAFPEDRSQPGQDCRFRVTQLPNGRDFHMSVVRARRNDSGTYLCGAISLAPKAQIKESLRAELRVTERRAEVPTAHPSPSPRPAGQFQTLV
UniProt Q8TDQ0, residues 22-202: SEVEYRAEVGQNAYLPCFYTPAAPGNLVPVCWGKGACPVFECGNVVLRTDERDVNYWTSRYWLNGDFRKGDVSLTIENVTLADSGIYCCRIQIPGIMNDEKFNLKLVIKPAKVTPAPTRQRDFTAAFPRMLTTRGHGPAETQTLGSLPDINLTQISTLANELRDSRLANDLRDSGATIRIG

Molecule | binding [1] | binding [2]
human CD28-Fc (from UniProt P10747-1 19-152) (Fc fusion) | binds | binds
human B7.2-Fc (from UniProt P42081-1 24-247) (Fc fusion) |  | binds
human PD-1-Fc (from UniProt Q15116 25-170) (Fc fusion) |  | binds
human 2B4-Fc (Fc fusion, UniProt Q9BZW8-2 22-224) CQGSADHVVSISGVPLQLQPNSIQTKVDSIAWKKLLPSQNGFHHILKWENGSLPSNTSNDRFSFIVKNLSLLIKAAQQQDSGLYCLEVTSISGKVQTATFQVFVFDKVEKPRLQGQGKILDRGRCQVALSCLVSRDGNVSYAWYRGSKLIQTAGNLTYLDEEVDINGTHTYTCNVSNPVSWESHTLNLTQDCQNAHQEFRFWP | binds | binds
human B7-H2-Fc (Fc fusion, UniProt O75144-1 19-256) DTQEKEVRAMVGSDVELSCACPEGSRFDLNDVYVYWQTSESKTVVTYHIPQNSSLENVDSRYRNRALMSPAGMLRGDFSLRLFNVTPQDEQKFHCLVLSQSLGFQEVLSVEVTLHVAANFSVPVVSAPHSPSQDELTFTCTSINGYPRPNVYWINKTDNSLLDQALQNDTVFLNMRGLYDVVSVLRIARTPSVNIGCCIENVLLQQNLTVGSQTGNDIGERDKITENPVSTGEKNAAT |  | binds
human B7-DC-Fc (Fc fusion, UniProt Q9BQ51-1 20-220) LFTVTVPKELYIIEHGSNVTLECNFDTGSHVNLGAITASLQKVENDTSPHRERATLLEEQLPLGKASFHIPQVQVRDEGQYQCIIIYGVAWDYKYLTLKVKASYRKINTHILKVPETDEVELTCQATGYPLAEVSWPNVSVPANTSHSRTPEGLYQVTSVLRLKPPPGRNFSCVFWNTHVRELTLASIDLQSQMEPRTHPT |  | binds

Now from value to molecule:

binding [1] | binding [2] | Molecule
binds |  | human TIM-3-Fc (from UniProt Q8TDQ0-1 22-202) (Fc fusion)
 | binds weakly | human B7-H1-Fc (from UniProt Q9NZQ7-1 19-238) (Fc fusion)
 | binds | human B7.1-Fc (from UniProt P33681-1 35-242) (Fc fusion)
binds | binds | human SLAMF1-Fc (Fc fusion, UniProt Q13291-1 21-237) ASYGTGGRMMNCPKILRQLGSKVLLPLTYERINKSMNKSIHIVVTMAKSLENSVENKIVSLDPSEAGPPRYLGDRYKFYLENLTLGIRESRKEDEGWYLMTLEKNVSVQRFCLQLRLYEQVSTPEIKVLNKTQENGTCTLILGCTVEKGDHVAYSWSEKAGTHPLNPANSSHLLSLTLGPQHADNIYICTVSNPISNNSQTFSPWPGCRTDPSETKP
 | binds weakly | human B7-H3-Fc (Fc fusion, UniProt Q5ZPR3-2 29-248) LEVQVPEDPVVALVGTDATLCCSFSPEPGFSLAQLNLIWQLTDTKQLVHSFAEGQDQGSAYANRTALFPDLLAQGNASLRLQRVRVADEGSFTCFVSIRDFGSAAVSLQVAAPYSKPSMTLEPNKDLRPGDTVTITCSSYRGYPEAEVFWQDGQGVPLTGNVTTSQMANEQGLFDVHSVLRVVLGANGTYSCLVRNPVLQQDAHGSVTITGQPMTFPPEA
